Taken from: PubChem BioAssay AID1259254 (NCATS, 2017)
In all, the deposit lists about 59,000 reagents; below is an unselected part. Over the whole deposit, about 1,550 (2.6%) were called active. 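G2 share is only a proxy for re-replication; each gene was hit by three separate siRNAs, and active genes were retested.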 The numbers tell different reagents against one gene apart. Further read-outs or replicates are left out here. Not given: the amount of reagent.

Aim: 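Genome-wide screen for genes that prevent DNA re-replication in cancer cells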 (primary screen)
Cell system: human HCT116 colorectal cancer cells
Reagents: single siRNA against human genes
Timing: 3 days
Measurement: 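Imaged Hoechst DNA stain sorts each cell into a cycle phase by DNA amount; per plate, G2 fraction set to 0% for non-targeting and 100% for GMNN siRNA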
Scale: G2 robust z-score: higher = more G2 cells, more excess DNA replication
Hit rule: 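Active siRNAs have a G2 robust z of 5 or more median absolute deviations over the median, which in these data means about 38% or higher of GMNN control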

G2 robust z-score, by gene knocked down and reagent
CHRNB4: #1 1.87 inactive; #2 1.42 inactive; #3 -0.267 inactive
GEM: #1 1.16 inactive; #2 5.41 active; #3 0.0257 inactive
RPS26P35: #1 2.75 inactive; #2 3.06 inactive; #3 2.07 inactive
MCC: #1 1.07 inactive; #2 -0.371 inactive; #3 -0.445 inactive
CYP24A1: #1 0.291 inactive; #2 2.86 inactive; #3 -0.25 inactive
TMEM38A: #1 -1.54 inactive; #2 0.519 inactive; #3 0.631 inactive
TTYH3: #1 0.534 inactive; #2 0.402 inactive; #3 0.329 inactive
TMEM115: #1 -0.452 inactive; #2 0.826 inactive; #3 -0.0495 inactive
DFFA: #1 0.298 inactive; #2 0.27 inactive; #3 0.159 inactive
MAPKBP1: #1 -0.7 inactive; #2 0.17 inactive; #3 -0.341 inactive

9 entries from above, reformatted:
{"gene knocked down": "CYP24A1", "reagent": 1, "G2 robust z-score": 0.291, "activity call": "inactive"}
{"gene knocked down": "CYP24A1", "reagent": 2, "G2 robust z-score": 2.86, "activity call": "inactive"}
{"gene knocked down": "CYP24A1", "reagent": 3, "G2 robust z-score": -0.25, "activity call": "inactive"}
{"gene knocked down": "TMEM38A", "reagent": 1, "G2 robust z-score": -1.54, "activity call": "inactive"}
{"gene knocked down": "TMEM38A", "reagent": 2, "G2 robust z-score": 0.519, "activity call": "inactive"}
{"gene knocked down": "TMEM38A", "reagent": 3, "G2 robust z-score": 0.631, "activity call": "inactive"}
{"gene knocked down": "TTYH3", "reagent": 1, "G2 robust z-score": 0.534, "activity call": "inactive"}
{"gene knocked down": "TTYH3", "reagent": 2, "G2 robust z-score": 0.402, "activity call": "inactive"}
{"gene knocked down": "TTYH3", "reagent": 3, "G2 robust z-score": 0.329, "activity call": "inactive"}

More entries follow:
G2 robust z-score, by gene knocked down and reagent
OSGIN1: #1 -0.651 inactive; #2 -0.202 inactive; #3 0.778 inactive
FBXO2: #1 -0.492 inactive; #2 -0.143 inactive; #3 0.571 inactive
OR5D14: #1 0.196 inactive; #2 0.896 inactive; #3 2.42 inactive
PRSS45P: #1 -0.351 inactive; #2 -0.926 inactive; #3 0.0674 inactive
PPFIA1: #1 0.631 inactive; #2 -0.0418 inactive; #3 -1.01 inactive
INO80B: #1 -1.13 inactive; #2 -0.35 inactive; #3 -1.17 inactive
SARNP: #1 0.0597 inactive; #2 0.142 inactive; #3 0.0397 inactive
SS18L1: #1 -0.0224 inactive; #2 -1.05 inactive; #3 -0.899 inactive
AMPD3: #1 5.51 active; #2 -0.353 inactive; #3 -0.515 inactive
BMP2K: #1 0.0598 inactive; #2 -0.122 inactive; #3 -0.0191 inactive
DENND2A: #1 0.0905 inactive; #2 -1.16 inactive; #3 -0.063 inactive
TET2: #1 -0.967 inactive; #2 0.0698 inactive; #3 1.58 inactive
LIMCH1: #1 -0.726 inactive; #2 -0.306 inactive; #3 -0.592 inactive
